According to patent US20260007697A1 (FUNDACI N PARA LA INVESTIGACI N M DICA APLICADA, published 2026):
No constants are given. Whether binding was seen depends on the method and setting. Some results given as binding are weak or reduced against the parent protein; the word gives no strength.

By UniProt entry, the sequences of proteins in these tests, tags left out. Where a name states a change or a piece, a line headed by the entry shows the natural chain unless it says otherwise.
UniProt P02751: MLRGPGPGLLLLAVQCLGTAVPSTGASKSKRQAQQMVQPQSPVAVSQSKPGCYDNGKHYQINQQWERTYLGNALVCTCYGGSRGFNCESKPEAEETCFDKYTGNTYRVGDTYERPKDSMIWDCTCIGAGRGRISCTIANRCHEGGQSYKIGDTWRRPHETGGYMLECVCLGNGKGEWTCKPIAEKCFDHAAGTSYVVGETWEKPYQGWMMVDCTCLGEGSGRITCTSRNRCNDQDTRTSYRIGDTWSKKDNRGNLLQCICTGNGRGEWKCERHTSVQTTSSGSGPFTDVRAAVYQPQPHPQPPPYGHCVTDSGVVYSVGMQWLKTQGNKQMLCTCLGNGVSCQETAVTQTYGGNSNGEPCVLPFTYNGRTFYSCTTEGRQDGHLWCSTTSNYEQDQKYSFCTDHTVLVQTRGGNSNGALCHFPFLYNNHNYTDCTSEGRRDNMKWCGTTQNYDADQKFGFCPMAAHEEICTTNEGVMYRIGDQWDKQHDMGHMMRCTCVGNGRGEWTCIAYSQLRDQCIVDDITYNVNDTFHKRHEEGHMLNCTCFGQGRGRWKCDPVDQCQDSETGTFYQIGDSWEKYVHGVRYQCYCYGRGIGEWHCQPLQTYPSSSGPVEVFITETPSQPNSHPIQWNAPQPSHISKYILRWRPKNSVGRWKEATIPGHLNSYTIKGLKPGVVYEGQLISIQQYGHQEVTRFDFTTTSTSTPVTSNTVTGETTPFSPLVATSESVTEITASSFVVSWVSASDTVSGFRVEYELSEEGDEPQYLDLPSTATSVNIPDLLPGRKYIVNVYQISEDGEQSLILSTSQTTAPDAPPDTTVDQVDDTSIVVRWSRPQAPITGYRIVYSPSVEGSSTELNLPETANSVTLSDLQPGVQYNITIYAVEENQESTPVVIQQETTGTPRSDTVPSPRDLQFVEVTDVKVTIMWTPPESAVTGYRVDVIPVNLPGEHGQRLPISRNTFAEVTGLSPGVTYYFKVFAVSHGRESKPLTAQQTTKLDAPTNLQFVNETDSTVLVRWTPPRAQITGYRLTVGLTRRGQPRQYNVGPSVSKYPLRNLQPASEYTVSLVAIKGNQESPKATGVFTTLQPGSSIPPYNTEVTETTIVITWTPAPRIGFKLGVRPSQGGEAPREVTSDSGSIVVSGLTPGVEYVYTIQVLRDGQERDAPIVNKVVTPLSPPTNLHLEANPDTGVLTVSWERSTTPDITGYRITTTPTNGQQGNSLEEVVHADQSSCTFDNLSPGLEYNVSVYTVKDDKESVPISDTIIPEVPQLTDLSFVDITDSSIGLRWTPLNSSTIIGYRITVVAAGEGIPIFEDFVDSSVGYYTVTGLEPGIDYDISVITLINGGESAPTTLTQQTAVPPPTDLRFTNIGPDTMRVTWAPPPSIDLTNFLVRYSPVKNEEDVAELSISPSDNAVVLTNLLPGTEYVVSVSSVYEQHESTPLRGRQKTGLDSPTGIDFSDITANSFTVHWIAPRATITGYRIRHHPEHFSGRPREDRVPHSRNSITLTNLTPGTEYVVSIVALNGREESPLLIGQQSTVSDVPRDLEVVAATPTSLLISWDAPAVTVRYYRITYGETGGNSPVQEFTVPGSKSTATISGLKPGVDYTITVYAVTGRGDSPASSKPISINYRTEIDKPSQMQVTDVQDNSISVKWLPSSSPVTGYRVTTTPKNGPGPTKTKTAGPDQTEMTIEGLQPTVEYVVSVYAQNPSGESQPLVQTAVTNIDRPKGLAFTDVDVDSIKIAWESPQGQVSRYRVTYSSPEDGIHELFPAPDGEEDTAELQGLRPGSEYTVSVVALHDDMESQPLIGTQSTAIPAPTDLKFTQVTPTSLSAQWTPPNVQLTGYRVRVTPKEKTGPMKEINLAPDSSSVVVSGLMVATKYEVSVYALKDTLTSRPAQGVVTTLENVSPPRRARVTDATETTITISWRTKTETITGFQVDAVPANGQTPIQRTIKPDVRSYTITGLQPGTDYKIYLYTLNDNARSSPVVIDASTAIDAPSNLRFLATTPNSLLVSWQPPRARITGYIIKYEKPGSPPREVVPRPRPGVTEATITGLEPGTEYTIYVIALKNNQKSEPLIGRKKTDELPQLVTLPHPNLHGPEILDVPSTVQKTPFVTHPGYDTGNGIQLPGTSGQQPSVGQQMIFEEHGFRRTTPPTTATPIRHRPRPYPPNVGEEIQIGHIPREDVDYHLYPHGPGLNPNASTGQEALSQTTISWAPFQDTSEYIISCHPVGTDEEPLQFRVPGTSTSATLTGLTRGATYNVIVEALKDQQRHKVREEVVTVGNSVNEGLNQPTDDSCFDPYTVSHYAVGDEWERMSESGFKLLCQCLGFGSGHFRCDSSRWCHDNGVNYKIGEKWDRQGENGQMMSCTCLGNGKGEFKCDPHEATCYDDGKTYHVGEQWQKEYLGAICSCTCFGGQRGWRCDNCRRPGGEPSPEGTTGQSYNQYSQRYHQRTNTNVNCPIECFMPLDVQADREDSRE
UniProt P11276: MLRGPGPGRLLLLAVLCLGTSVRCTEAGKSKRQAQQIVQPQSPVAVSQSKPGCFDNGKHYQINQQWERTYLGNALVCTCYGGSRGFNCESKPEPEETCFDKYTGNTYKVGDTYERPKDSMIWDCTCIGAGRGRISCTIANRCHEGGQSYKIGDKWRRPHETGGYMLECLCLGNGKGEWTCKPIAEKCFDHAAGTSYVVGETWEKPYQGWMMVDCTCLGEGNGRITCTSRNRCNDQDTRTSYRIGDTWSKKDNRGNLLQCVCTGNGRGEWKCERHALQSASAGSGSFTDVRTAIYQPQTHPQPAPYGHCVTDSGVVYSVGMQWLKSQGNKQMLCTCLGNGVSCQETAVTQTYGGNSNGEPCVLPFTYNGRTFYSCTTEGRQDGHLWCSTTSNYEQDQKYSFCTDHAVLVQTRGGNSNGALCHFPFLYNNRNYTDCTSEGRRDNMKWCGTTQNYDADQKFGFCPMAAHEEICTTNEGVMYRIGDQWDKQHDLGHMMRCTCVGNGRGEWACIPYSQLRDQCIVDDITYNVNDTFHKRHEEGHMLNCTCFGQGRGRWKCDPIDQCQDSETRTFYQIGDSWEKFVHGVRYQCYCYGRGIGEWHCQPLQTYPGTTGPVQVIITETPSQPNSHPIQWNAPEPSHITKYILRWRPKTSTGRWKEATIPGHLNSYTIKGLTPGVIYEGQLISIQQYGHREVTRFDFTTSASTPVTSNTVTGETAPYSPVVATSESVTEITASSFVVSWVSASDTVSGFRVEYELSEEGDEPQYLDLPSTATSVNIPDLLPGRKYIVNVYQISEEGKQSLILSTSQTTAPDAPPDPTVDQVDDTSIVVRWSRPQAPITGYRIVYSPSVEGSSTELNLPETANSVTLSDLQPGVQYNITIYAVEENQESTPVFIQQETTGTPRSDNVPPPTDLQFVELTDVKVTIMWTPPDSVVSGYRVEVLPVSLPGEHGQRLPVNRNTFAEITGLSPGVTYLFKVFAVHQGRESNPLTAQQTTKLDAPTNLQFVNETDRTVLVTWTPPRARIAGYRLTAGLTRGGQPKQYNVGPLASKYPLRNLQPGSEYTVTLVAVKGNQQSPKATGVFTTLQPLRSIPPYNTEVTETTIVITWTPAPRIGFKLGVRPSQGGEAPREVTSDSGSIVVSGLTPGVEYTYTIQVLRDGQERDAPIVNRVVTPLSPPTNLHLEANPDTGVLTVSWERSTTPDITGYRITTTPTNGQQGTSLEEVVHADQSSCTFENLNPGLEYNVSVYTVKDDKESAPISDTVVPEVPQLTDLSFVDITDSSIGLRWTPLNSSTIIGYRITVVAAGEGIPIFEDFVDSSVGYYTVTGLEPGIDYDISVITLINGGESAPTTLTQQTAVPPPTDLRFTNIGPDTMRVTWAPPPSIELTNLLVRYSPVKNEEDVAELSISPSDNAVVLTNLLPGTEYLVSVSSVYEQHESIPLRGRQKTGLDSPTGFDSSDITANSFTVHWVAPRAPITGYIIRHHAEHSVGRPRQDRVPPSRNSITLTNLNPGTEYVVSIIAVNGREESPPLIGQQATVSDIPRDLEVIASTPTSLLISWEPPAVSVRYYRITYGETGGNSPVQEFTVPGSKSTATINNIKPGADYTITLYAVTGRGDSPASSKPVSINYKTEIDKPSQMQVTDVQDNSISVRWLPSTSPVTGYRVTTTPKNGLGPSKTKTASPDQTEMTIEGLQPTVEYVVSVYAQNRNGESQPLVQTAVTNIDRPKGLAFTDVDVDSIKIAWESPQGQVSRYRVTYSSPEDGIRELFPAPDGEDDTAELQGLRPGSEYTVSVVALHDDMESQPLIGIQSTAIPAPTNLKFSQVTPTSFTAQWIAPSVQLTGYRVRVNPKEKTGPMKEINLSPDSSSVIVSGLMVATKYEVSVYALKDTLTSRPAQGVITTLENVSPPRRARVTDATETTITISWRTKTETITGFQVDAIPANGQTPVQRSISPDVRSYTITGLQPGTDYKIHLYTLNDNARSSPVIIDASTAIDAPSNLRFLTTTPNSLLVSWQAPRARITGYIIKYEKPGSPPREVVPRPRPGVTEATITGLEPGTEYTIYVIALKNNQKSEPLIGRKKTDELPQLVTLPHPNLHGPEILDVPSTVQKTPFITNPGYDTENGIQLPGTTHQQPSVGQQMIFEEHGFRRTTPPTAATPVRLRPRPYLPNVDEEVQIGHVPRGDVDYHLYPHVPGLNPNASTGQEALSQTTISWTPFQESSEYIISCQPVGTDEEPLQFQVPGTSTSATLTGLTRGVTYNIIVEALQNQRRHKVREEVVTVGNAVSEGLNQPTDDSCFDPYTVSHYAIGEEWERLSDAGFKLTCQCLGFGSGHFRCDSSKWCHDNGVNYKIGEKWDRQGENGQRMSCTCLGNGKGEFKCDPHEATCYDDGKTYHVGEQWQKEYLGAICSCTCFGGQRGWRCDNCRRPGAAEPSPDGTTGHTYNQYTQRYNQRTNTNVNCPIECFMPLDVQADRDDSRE

What was measured:
[1] = target: recombinant human EDA protein (extra-domain A of fibronectin), His-tagged (human) (UniProt P02751); assay: ELISA titration, plates coated with 0 to 5 µg/ml human EDA (axis µg/ml EDAr), detection with scFv F8
[2] = target: recombinant mouse EDA protein (extra-domain A of fibronectin), His-tagged (mouse) (UniProt P11276); assay: ELISA, plates coated with mouse EDA, detection with scFv F8
[3] = target: recombinant human EDA protein (extra-domain A of fibronectin), His-tagged (human) (UniProt P02751); assay: ELISA, plates coated with human EDA, detection with scFv F8
[4] = target: recombinant mouse EDA protein (extra-domain A of fibronectin), His-tagged (mouse) (UniProt P11276); assay: ELISA titration, plates coated with 0 to 5 µg/ml mouse EDA (axis µg/ml EDAr), detection with scFv F8
[5] = target: recombinant mouse EDA protein (extra-domain A of fibronectin), His-tagged (mouse) (UniProt P11276); assay: ELISA, EDA coated to plates
[6] = target: recombinant human EDA protein (extra-domain A of fibronectin), His-tagged (human) (UniProt P02751); assay: told in words at the start of Example 2; no assay named in this sentence
[7] = target: recombinant mouse EDA protein (extra-domain A of fibronectin), His-tagged (mouse) (UniProt P11276); assay: as above
[8] = target: recombinant human EDA protein (extra-domain A of fibronectin), His-tagged (human) (UniProt P02751); assay: ELISA, EDA coated to plates (human EDA recognized less well than murine EDA)

binding [1]: binds
binding [2]: binds
binding [3]: binds
binding [4]: binds
binding [5]: binds
binding [6]: binds
binding [7]: binds
binding [8]: binds
B1: anti-EDA F8 scFv (purified recombinant antibody fragment) (scFv)
scFv: EVQLLESGGGLVQPGGSLRLSCAASGFTFSVMKMSWVRQAPGKGLEWVSAISGSGGSTYYADSVKGRFTISRDNSKNTLYLQMNSLRAEDTAVYYCAKSTHLYLFDYWGQGTLVTVSSGGGGSGGGGSGGGGSGGGGSEIVLTQSPGTLSLSPGERATLSCRASQSVSNAFLAWYQQKPGQAPRLLIYGASSRATGIPDRFSGSGSGTDFTLTISRLEPEDFAVYYCQQMRGRPPTFGQGTKVEIKHHHHHH
notes: Expressed in E. coli BL21(DE3) from pET20b and purified on protein A Sepharose; also called scFv F8; scFv (F8)
